# Data published in the supplement of paper PMC9135407.
# Where “and” joins values, the source holds several entries; their conditions need not be identical. Equal entries are not always repeated. Structures can show the parent of a compound that is named as a salt. ± gives the standard deviation of the averaged measurements. The list shows a part of the results. Part of the spread comes from offsets between plates or batches.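 Culture-activated primary human stellate myofibroblasts, where regained lipid droplets signal inactivation. Value: share of Hoechst-counted cells above a per-plate Bodipy cutoff, in duplicate wells, with DMSO negative and nortriptyline positive controls on each plate. Hits: a control-normalized score above the plate's top-tenth-percentile nortriptyline wells, or one of a plate's three best wells. Final well concentrations are not given.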
# Tested on: primary human hepatic stellate cells (donor 1)
# Experiment: percent Bodipy-positive cells; higher = more lipid droplet accumulation
# Settings: 48 h
# [1] = library stock concentration: 10 mM
# [2] = library stock concentration: 400 uM
# [3] = library stock concentration: 2 mM
# [4] = library stock concentration: 3.33 mM
# [5] = library stock concentration: 1 mM
smiles,measurement,setting,value
CN(C)CCOc1ccc(/C(=C(/CCCl)c2ccccc2)c2ccccc2)cc1.O=C(O)CC(O)(CC(=O)O)C(=O)O,percent Bodipy-positive cells,[1],93.2 ± 1.1%
COc1cc(OC)c(/C=C/S(=O)(=O)Cc2ccc(OC)c(NCC(=O)O)c2)c(OC)c1,percent Bodipy-positive cells,library stock concentration: 80 uM,12.8 ± 5.8%
same,percent Bodipy-positive cells,[2],19.7 ± 13%
same,percent Bodipy-positive cells,[3],25.1 ± 3.8%
same,percent Bodipy-positive cells,[4],41.2 ± 10%
same,percent Bodipy-positive cells,[1],45% and 24%
CN(C)[C@@H]1C(O)=C(C(N)=O)C(=O)[C@@]2(O)C(O)=C3C(=O)c4c(O)cccc4[C@@](C)(O)[C@H]3[C@H](O)[C@@H]12 [Oxytetracycline dihydrate],percent Bodipy-positive cells,,20 ± 2.4%
CN(C)[C@@H]1C(O)=C(C(N)=O)C(=O)[C@@]2(O)C(O)=C3C(=O)c4c(O)cccc4[C@@](C)(O)[C@H]3[C@H](O)[C@@H]12 [Oxytetracycline hydrochloride],percent Bodipy-positive cells,[1],28.5 ± 2.3%
CN(C)[C@@H]1C(O)=C(C(N)=O)C(=O)[C@@]2(O)C(O)=C3C(=O)c4c(O)cccc4[C@@](C)(O)[C@H]3[C@H](O)[C@@H]12 [Oxytetracycline],percent Bodipy-positive cells,library stock concentration: 4 mM,5.32 ± 1.1%
same,percent Bodipy-positive cells,[1],11.9 ± 4.2%
OC(CN1CCN(c2cccc(Cl)c2)CC1)C(c1ccccc1)c1ccccc1 (centres undefined),percent Bodipy-positive cells,[4],16.5 ± 6.5%
same,percent Bodipy-positive cells,[1],20.5% and 18.9%
COc1ccc(-c2ccc3c(N4CCOCC4)nc(N4C[C@@H](C)O[C@@H](C)C4)nc3n2)cc1CO,percent Bodipy-positive cells,[2],12.1 ± 7.2%
same,percent Bodipy-positive cells,[3],14.5 ± 3%
same,percent Bodipy-positive cells,[4],7.8 ± 0.45%
same,percent Bodipy-positive cells,[1],12.4% and 9.91%
Nc1ccc(CCNc2ncnc3c2ncn3C2OC(CO)C(O)C2O)cc1 (centres undefined) [N6-2-(4-Aminophenyl)ethyladenosine],percent Bodipy-positive cells,[1],31.6 ± 4.1%
Cn1cnc2cc3c(Nc4cccc(Br)c4)ncnc3cc21,percent Bodipy-positive cells,[4],5.95 ± 0.51%
C#C[C@]1(O)CC[C@H]2[C@@H]3CCC4=Cc5oncc5CC4(C)[C@H]3CCC21C (some centres undefined) [Danazol],percent Bodipy-positive cells,[1],86 ± 3.1%
CCCCC[C@H](O)/C=C/[C@H]1C=CC(=O)[C@@H]1CCCCCCC(=O)OCC [Prostaglandin A1 ethyl ester],percent Bodipy-positive cells,[5],18.4 ± 5.3%
NS(=O)(=O)c1ccc(N=Nc2c(O)[nH]c3ccc(Br)cc23)cc1 [Cdk2 Inhibitor II],percent Bodipy-positive cells,[4],8.4 ± 3%
NC(N)=Nc1nc(CSCC/C(N)=N/S(N)(=O)=O)cs1 [Famotidine],percent Bodipy-positive cells,,28.8 ± 3%
same,percent Bodipy-positive cells,[4],9.83 ± 1.8%
same,percent Bodipy-positive cells,library stock concentration: 5.9 mM,10.6% and 14.5%
NC(N)=Nc1nc(CSCC/C(N)=N/S(N)(=O)=O)cs1,percent Bodipy-positive cells,[1],6.95 ± 2.3%
Cc1cc(-c2ccccc2)nnc1NCCN1CCOCC1 [Minaprine hydrochloride],percent Bodipy-positive cells,library stock concentration: 5.4 mM,21.8 ± 6.2%
same,percent Bodipy-positive cells,[1],40.2 ± 5.1%
Cc1cc(-c2ccccc2)nnc1NCCN1CCOCC1 [Minaprine dihydrochloride],percent Bodipy-positive cells,,18.5 ± 2.7%
CC/C(=C(/CC)c1ccc(O)cc1)c1ccc(O)cc1 [Diethylstilbestrol],percent Bodipy-positive cells,,15.8 ± 9.4%
same,percent Bodipy-positive cells,[5],9.63 ± 1.6%
same,percent Bodipy-positive cells,[4],8.1 ± 4.7%
same,percent Bodipy-positive cells,library stock concentration: 7.5 mM,8.85% and 4.65%
same,percent Bodipy-positive cells,[1],13.9% and 10.1%
CC1=C(/C=C/C(C)=C/C=C/C(C)=C\C(=O)O)C(C)(C)CCC1 [13-cis-retinoic acid],percent Bodipy-positive cells,[1],13.8 ± 1.9%
CC1=C(/C=C/C(C)=C/C=C/C(C)=C\C(=O)O)C(C)(C)CCC1 [13-cis retinoic acid],percent Bodipy-positive cells,[5],6.22 ± 5%
CC1=C(/C=C/C(C)=C/C=C/C(C)=C\C(=O)O)C(C)(C)CCC1 [Isotretinon],percent Bodipy-positive cells,library stock concentration: 6.7 mM,22.89 ± 0.03%
same,percent Bodipy-positive cells,[1],25.3 ± 1.3%
CC1=C(/C=C/C(C)=C/C=C/C(C)=C\C(=O)O)C(C)(C)CCC1 [Isotretinoin],percent Bodipy-positive cells,,24.4 ± 8.9%
same,percent Bodipy-positive cells,[4],14.3 ± 8.3%

# Copied from the listing (three entries):
smiles,measurement,setting,value
CC/C(=C(/CC)c1ccc(O)cc1)c1ccc(O)cc1 [Diethylstilbestrol],percent Bodipy-positive cells,[4],8.1 ± 4.7%
same,percent Bodipy-positive cells,library stock concentration: 7.5 mM,8.85% and 4.65%
same,percent Bodipy-positive cells,[1],13.9% and 10.1%
